Experimental data as given in the supplement of paper PMC5355238.
Counter-ions that a name gives are not always drawn. The list shows a part of the results. Most values lie at the level of the controls, where differences are scatter.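 Using flow cytometry, the assay measures the median γH2AX antibody signal in S-phase Reh cells (a human leukemia line). Each score is the number of standard deviations from the median difference of paired plate sets. Candidate hits scored above 2.5; compounds scoring below -2 lowered MK1775-induced damage.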

test system: Reh; assay: Z' of S-phase gammaH2AX difference (drug + MK1775 minus drug alone) (Z-score); higher = stronger synergistic S-phase DNA damage with MK1775; settings: MK1775 concentration 400 nM; first compound 10 µM; 4 h

| Structure (SMILES) | Z' of S-phase gammaH2AX difference (Z-score) |
| --- | --- |
| N=C(N)N1CCc2ccccc2C1 [Debrisoquin sulfate] + C=CCn1c(=O)c2cnc(Nc3ccc(N4CCN(C)CC4)cc3)nc2n1-c1cccc(C(C)(C)O)n1 [MK1775] | inactive: 0.0753 |
| C[C@@H](Oc1cc(-c2cnn(C3CCNCC3)c2)cnc1N)c1c(Cl)ccc(F)c1Cl + C=CCn1c(=O)c2cnc(Nc3ccc(N4CCN(C)CC4)cc3)nc2n1-c1cccc(C(C)(C)O)n1 [MK1775] | inactive: -0.74 |
| CC(C)C1C2CCC(C2)C1N (stereo not given) + C=CCn1c(=O)c2cnc(Nc3ccc(N4CCN(C)CC4)cc3)nc2n1-c1cccc(C(C)(C)O)n1 [MK1775] | inactive: 0.02 |
| Nc1c(S(=O)(=O)O)cc(Nc2ccc(Nc3nc(Cl)nc(Nc4cccc(S(=O)(=O)O)c4)n3)c(S(=O)(=O)O)c2)c2c1C(=O)c1ccccc1C2=O [Reactive Blue 2] + C=CCn1c(=O)c2cnc(Nc3ccc(N4CCN(C)CC4)cc3)nc2n1-c1cccc(C(C)(C)O)n1 [MK1775] | inactive: 0.028 |
| CNCC[C@@H](Oc1ccccc1C)c1ccccc1 [Tomoxetine] + C=CCn1c(=O)c2cnc(Nc3ccc(N4CCN(C)CC4)cc3)nc2n1-c1cccc(C(C)(C)O)n1 [MK1775] | inactive: -0.438 |
| c1ccc(CN2CCC3(CCCc4ccccc43)CC2)cc1 [L-687,384 hydrochloride] + C=CCn1c(=O)c2cnc(Nc3ccc(N4CCN(C)CC4)cc3)nc2n1-c1cccc(C(C)(C)O)n1 [MK1775] | inactive: -0.121 |
| COc1nc(C)cnc1NS(=O)(=O)c1cccnc1-c1ccc(-c2nnco2)cc1 [Zibotentan (ZD4054)] + C=CCn1c(=O)c2cnc(Nc3ccc(N4CCN(C)CC4)cc3)nc2n1-c1cccc(C(C)(C)O)n1 [MK1775] | inactive: 0.347 |
| C[N+](C)(C)CCC(=O)c1cccc2ccccc12 [2-(alpha-Naphthoyl)ethyltrimethylammonium iodide] + C=CCn1c(=O)c2cnc(Nc3ccc(N4CCN(C)CC4)cc3)nc2n1-c1cccc(C(C)(C)O)n1 [MK1775] | inactive: 0.0243 |
| CN1[C@@H]2CC[C@H]1C[C@@H](OC(c1ccccc1)c1ccccc1)C2 [Benztropine mesylate] + C=CCn1c(=O)c2cnc(Nc3ccc(N4CCN(C)CC4)cc3)nc2n1-c1cccc(C(C)(C)O)n1 [MK1775] | inactive: 0.438 |
| CC1(C)C(=O)N(CCN2CCC(C(=O)c3ccc(F)cc3)CC2)c2ccccc21 [LY-310,762 hydrochloride] + C=CCn1c(=O)c2cnc(Nc3ccc(N4CCN(C)CC4)cc3)nc2n1-c1cccc(C(C)(C)O)n1 [MK1775] | inactive: 0.726 |
| NC(=O)Nc1sc(-c2ccc(F)cc2)cc1C(N)=O + C=CCn1c(=O)c2cnc(Nc3ccc(N4CCN(C)CC4)cc3)nc2n1-c1cccc(C(C)(C)O)n1 [MK1775] | inactive: -0.576 |
| Cc1c(CC(C)(C)C(=O)O)n(Cc2ccc(Cl)cc2)c2ccc(F)cc12 + C=CCn1c(=O)c2cnc(Nc3ccc(N4CCN(C)CC4)cc3)nc2n1-c1cccc(C(C)(C)O)n1 [MK1775] | inactive: -0.873 |
| CC(=O)OC(C)C[N+](C)(C)C (stereo not drawn) [Acetyl-beta-methylcholine chloride] + C=CCn1c(=O)c2cnc(Nc3ccc(N4CCN(C)CC4)cc3)nc2n1-c1cccc(C(C)(C)O)n1 [MK1775] | inactive: -0.0134 |
| C=CCc1ccccc1OCC(O)CNC(C)C (stereo not given) [Alprenolol hydrochloride] + C=CCn1c(=O)c2cnc(Nc3ccc(N4CCN(C)CC4)cc3)nc2n1-c1cccc(C(C)(C)O)n1 [MK1775] | inactive: 0.19 |
| Cc1nc(N=Nc2ccc(S(=O)(=O)O)cc2S(=O)(=O)O)c(COP(=O)(O)O)c(C=O)c1O + C=CCn1c(=O)c2cnc(Nc3ccc(N4CCN(C)CC4)cc3)nc2n1-c1cccc(C(C)(C)O)n1 [MK1775] | inactive: -0.277 |
| CCCCC[C@H](CC(=O)NO)C(=O)N[C@H](C(=O)N1CCC[C@H]1CO)C(C)C [Actinonin] + C=CCn1c(=O)c2cnc(Nc3ccc(N4CCN(C)CC4)cc3)nc2n1-c1cccc(C(C)(C)O)n1 [MK1775] | inactive: -0.1 |
| CN(C)C(=O)N=NC(=O)N(C)C [N,N,N',N'-Tetramethylazodicarboxamide] + C=CCn1c(=O)c2cnc(Nc3ccc(N4CCN(C)CC4)cc3)nc2n1-c1cccc(C(C)(C)O)n1 [MK1775] | inactive: -0.911 |
| CN(C)CCC(c1ccccc1)c1ccccn1 (stereo not given) [Pheniramine maleate] + C=CCn1c(=O)c2cnc(Nc3ccc(N4CCN(C)CC4)cc3)nc2n1-c1cccc(C(C)(C)O)n1 [MK1775] | inactive: 0.403 |

| Structure (SMILES) | Z' of S-phase gammaH2AX difference (Z-score) |
| --- | --- |
| CCOc1ccc(Cc2cc([C@@H]3O[C@H](CO)[C@@H](O)[C@H](O)[C@H]3O)ccc2Cl)cc1 [Dapagliflozin] + C=CCn1c(=O)c2cnc(Nc3ccc(N4CCN(C)CC4)cc3)nc2n1-c1cccc(C(C)(C)O)n1 [MK1775] | inactive: 0.422 |
| COC1=C(OC)C(=O)c2ccccc2C1=O [2,3-Dimethoxy-1,4-naphthoquinone] + C=CCn1c(=O)c2cnc(Nc3ccc(N4CCN(C)CC4)cc3)nc2n1-c1cccc(C(C)(C)O)n1 [MK1775] | inactive: -0.503 |
| CCn1c(-c2nonc2N)nc2cnc(Oc3cccc(NC(=O)c4ccc(OCCN5CCOCC5)cc4)c3)cc21 + C=CCn1c(=O)c2cnc(Nc3ccc(N4CCN(C)CC4)cc3)nc2n1-c1cccc(C(C)(C)O)n1 [MK1775] | inactive: -0.58 |
| Cn1cnc2c(NC3CCCC3)ncnc21 [N6-Cyclopentyl-9-methyladenine] + C=CCn1c(=O)c2cnc(Nc3ccc(N4CCN(C)CC4)cc3)nc2n1-c1cccc(C(C)(C)O)n1 [MK1775] | inactive: 0.16 |
| CC[C@]1(O)C[C@@H]2CN(CCc3c([nH]c4ccccc34)[C@@](C(=O)OC)(c3cc4c(cc3OC)N(C)[C@H]3[C@@](O)(C(=O)OC)[C@H](OC(C)=O)[C@]5(CC)C=CCN6CC[C@]43[C@@H]65)C2)C1 [Vinblastine sulfate salt] + C=CCn1c(=O)c2cnc(Nc3ccc(N4CCN(C)CC4)cc3)nc2n1-c1cccc(C(C)(C)O)n1 [MK1775] | inactive: -0.0205 |
| CC[C@]1(O)C[C@@H]2CN(CCc3c([nH]c4ccccc34)[C@@](C(=O)OC)(c3cc4c(cc3OC)N(C)[C@H]3[C@@](O)(C(=O)OC)[C@H](OC(C)=O)[C@]5(CC)C=CCN6CC[C@]43[C@@H]65)C2)C1 [Vinblastine] + C=CCn1c(=O)c2cnc(Nc3ccc(N4CCN(C)CC4)cc3)nc2n1-c1cccc(C(C)(C)O)n1 [MK1775] | inactive: 0.163 |
| COc1cc2c(cc1OC)CN(CCc1ccc(NC(=O)c3cccc4c(=O)c5cccc(OC)c5[nH]c34)cc1)CC2 [Elacridar] + C=CCn1c(=O)c2cnc(Nc3ccc(N4CCN(C)CC4)cc3)nc2n1-c1cccc(C(C)(C)O)n1 [MK1775] | inactive: -0.0584 |
| CC(=O)NCCc1ccc(O)c(O)c1 [N-Acetyldopamine monohydrate] + C=CCn1c(=O)c2cnc(Nc3ccc(N4CCN(C)CC4)cc3)nc2n1-c1cccc(C(C)(C)O)n1 [MK1775] | inactive: 0.581 |
| Nc1nccc2c1ncn2[C@@H]1O[C@H](CO)[C@@H](O)[C@H]1O [3-deazaadenosine] + C=CCn1c(=O)c2cnc(Nc3ccc(N4CCN(C)CC4)cc3)nc2n1-c1cccc(C(C)(C)O)n1 [MK1775] | inactive: 0.231 |
| N[C@@H](Cc1ccc(F)cc1)C(=O)O [p-Fluoro-L-phenylalanine] + C=CCn1c(=O)c2cnc(Nc3ccc(N4CCN(C)CC4)cc3)nc2n1-c1cccc(C(C)(C)O)n1 [MK1775] | inactive: -0.163 |
| Cn1cnc(N)c2ncnc1-2 [3-Methyladenine] + C=CCn1c(=O)c2cnc(Nc3ccc(N4CCN(C)CC4)cc3)nc2n1-c1cccc(C(C)(C)O)n1 [MK1775] | inactive: 0.434 |
| COc1cc(CC(=O)O)ccc1O [4-Hydroxy-3-methoxyphenylacetic acid] + C=CCn1c(=O)c2cnc(Nc3ccc(N4CCN(C)CC4)cc3)nc2n1-c1cccc(C(C)(C)O)n1 [MK1775] | inactive: -0.649 |
| CCCC(C(=O)OCCN(CC)CC)(c1ccccc1)c1ccccc1 [SKF-525A hydrochloride] + C=CCn1c(=O)c2cnc(Nc3ccc(N4CCN(C)CC4)cc3)nc2n1-c1cccc(C(C)(C)O)n1 [MK1775] | inactive: -0.403 |
| Clc1ccccc1C(c1ccccc1)(c1ccccc1)n1ccnc1 [Clotrimazole] + C=CCn1c(=O)c2cnc(Nc3ccc(N4CCN(C)CC4)cc3)nc2n1-c1cccc(C(C)(C)O)n1 [MK1775] | inactive: 0.688 |
| NC(=O)NO [Hydroxyurea] + C=CCn1c(=O)c2cnc(Nc3ccc(N4CCN(C)CC4)cc3)nc2n1-c1cccc(C(C)(C)O)n1 [MK1775] | inactive: -1.58 |
| CNC1(C)C2CCC(C2)C1(C)C (stereo not given) [Mecamylamine hydrochloride] + C=CCn1c(=O)c2cnc(Nc3ccc(N4CCN(C)CC4)cc3)nc2n1-c1cccc(C(C)(C)O)n1 [MK1775] | inactive: -0.64 |
| CC(C)(Oc1ccc(C2CC2(Cl)Cl)cc1)C(=O)O (stereo not given) [Ciprofibrate] + C=CCn1c(=O)c2cnc(Nc3ccc(N4CCN(C)CC4)cc3)nc2n1-c1cccc(C(C)(C)O)n1 [MK1775] | inactive: 0 |

Rewritten as tab-separated lines: entries from further up.
Structure (SMILES)	Z' of S-phase gammaH2AX difference (Z-score)
COc1cc(CC(=O)O)ccc1O [4-Hydroxy-3-methoxyphenylacetic acid] + C=CCn1c(=O)c2cnc(Nc3ccc(N4CCN(C)CC4)cc3)nc2n1-c1cccc(C(C)(C)O)n1 [MK1775]	inactive: -0.649
CCCC(C(=O)OCCN(CC)CC)(c1ccccc1)c1ccccc1 [SKF-525A hydrochloride] + C=CCn1c(=O)c2cnc(Nc3ccc(N4CCN(C)CC4)cc3)nc2n1-c1cccc(C(C)(C)O)n1 [MK1775]	inactive: -0.403
Clc1ccccc1C(c1ccccc1)(c1ccccc1)n1ccnc1 [Clotrimazole] + C=CCn1c(=O)c2cnc(Nc3ccc(N4CCN(C)CC4)cc3)nc2n1-c1cccc(C(C)(C)O)n1 [MK1775]	inactive: 0.688
